Measured values: patent US20040018550

Sequences of proteins named here, by UniProt entry; tags and fusion partners are left off. Residues count along the entry.
UniProt O95243, 1-154: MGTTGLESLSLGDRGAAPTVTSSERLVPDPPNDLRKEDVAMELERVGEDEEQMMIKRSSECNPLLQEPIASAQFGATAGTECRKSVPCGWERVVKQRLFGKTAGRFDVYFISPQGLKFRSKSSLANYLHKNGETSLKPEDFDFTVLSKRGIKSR

How the values were obtained:
[1] = molecular target: MED1 (MBD4) full length (Homo sapiens) (UniProt O95243); test: enzyme reaction in vitro; conditions: no cleavage, 1 to 5 extrahelical bases; purified recombinant protein; protein details: 6xHis (pET28b, E. coli); label: 32P bottom strand
[2] = molecular target: MED1 methyl-CpG binding domain (MBD) (Homo sapiens) (UniProt O95243); test: EMSA; conditions: 5mC at every n (five symmetrical methyl-CpG sites) [5mC top 9, 16, 22, 30, 37; 5mC bottom 10, 17, 25, 31, 38]; purified recombinant protein; protein details: 6xHis carboxyterminal fusion (E. coli); label: 32P; letters built from the parent sequence and the stated change
[3] = molecular target: Flag-MED1/f5 (Homo sapiens) (UniProt O95243); test: EMSA; conditions: 5mC at every n (five symmetrical methyl-CpG sites) [5mC top 9, 16, 22, 30, 37; 5mC bottom 10, 17, 25, 31, 38]; abolished by 100-fold cold oligo; poly(dI-dC), room temperature; protein in a lysate after overexpression; label: 32P; letters built from the parent sequence and the stated change

Sequence | activity on this sequence [1] | binding result [2] | binding result [3]
CCGTCATGCTAGTTCACTTTATGCTTCCGGCTCGGTACTCGTCATGTGTGGAATTGTGATTAAAATCG / GCGATTTTAATCACAATTCCACACATGACGCGAGCCGGAAGCATAAAGTGAACTAGCATGACG [GTACT insertion substrate] | not active | – | –
CCGTCATGCTAGTTCACTTTATGCTTCCGGCTCGGTCGTCATGTGTGGAATTGTGATTAAAATCG / GCGATTTTAATCACAATTCCACACATGACGCGAGCCGGAAGCATAAAGTGAACTAGCATGACG [GT insertion substrate] | not active | – | –
CCGTCATGCTAGTTCACTTTATGCTTCCGGCTCGGTACCGTCATGTGTGGAATTGTGATTAAAATCG / GCGATTTTAATCACAATTCCACACATGACGCGAGCCGGAAGCATAAAGTGAACTAGCATGACG [GTAC insertion substrate] | not active | – | –
CCGTCATGCTAGTTCACTTTATGCTTCCGGCTCGGTACGTCATGTGTGGAATTGTGATTAAAATCG / GCGATTTTAATCACAATTCCACACATGACGCGAGCCGGAAGCATAAAGTGAACTAGCATGACG [GTA insertion substrate] | not active | – | –
GCGAATTCCGTGCGACGAAGCCGGACGATCGACCAGCGCTCGAGCA / GTGCTCGAGCGCTGGTCGATCGTCCGGCTTCGTCGCACGGAATTCG [methylated CpG probe] | – | binds | binds
CCGTCATGCTAGTTCACTTTATGCTTCCGGCTCGGGGGGCGTCATGTGTGGAATTGTGATTAAAATCG / GCGATTTTAATCACAATTCCACACATGACGCGAGCCGGAAGCATAAAGTGAACTAGCATGACG [GGGGG insertion substrate] | not active | – | –

The exact form of at least one protein or probe is not confirmed. For some of these results: No signal at the amounts used counts as a negative. For some of these results: Where cells or extracts were used, other partners may take part.
